Data as given in patent US7700122B1, “Topical compositions comprising an opioid analgesic and an NMDA antagonist” (Memorial Sloan-Kettering Cancer Center, priority 1998, dated 2010).

Key:
CD-1 mice [1] = assay: Interactions between topical and systemic or spinal morphine (tailflick); assay type: in vivo
CD-1 mice [2] = assay: Tailflick assay, topical opioid analgesia (tail immersion in DMSO solution); assay type: in vivo
CD-1 mice [3] = conditions: Kolesnikov et al., 1996; cited from earlier work
CD-1 mice [4] = assay: Tolerance to systemic and topical morphine and cross tolerance (tailflick); assay type: in vivo; conditions: tolerant/naive ED50, topical
[5] = mouse, in vivo

Molecule | Topical Shift, spinal (CD-1 mice [1]; shift of spinal ED50 by topical morphine 15 mM) | Topical Shift, systemic (CD-1 mice [1]; shift of systemic ED50 by topical morphine 15 mM) | Relative potency (CD-1 mice [2]; ratio of topical ED50 against morphine) | ED50 (95% CL) (CD-1 mice [2]; topical for 1 min, tailflick assay, CD-1 mice) | shift in local morphine dose-response curves in mice tolerant to systemic morphine (CD-1 mice [3]) [fold] | Ratio, Topical (CD-1 mice [4]) | radioactivity in blood, brain or spinal cord [5] | radioactivity in proximal unexposed tail relative to immersed distal tail [5] [%]
CN1CC[C@]23c4c5ccc(O)c4O[C@H]2[C@@H](O)C=C[C@H]3[C@H]1C5 [Morphine] | 12 | 6.5 | 1 | 8.3 mM (4-13) | 19 | 9.4 | – | –
[^125I]DAMGO [^125I-DAMGO] | – | – | – | – | – | – | no detectable levels of radioactivity | < 1
